In experiment [1] the target is FLAG-BPLF1 (vDUB, N-terminal domain of the Epstein-Barr virus large tegument protein BPLF1) (Epstein-Barr virus) (UniProt P03186). Nature of the experiment: co-IP; HEK293T harvested 24 h after transfection; lysates incubated with anti-FLAG agarose affinity gel for 3 h at 4°C; immunoblot. A general note: Immunoblotting shows a protein as a band on a membrane.
Experiment [2] has as its target UFL1 (UFM1 specific ligase 1), endogenous (human (endogenous in HEK293T)) (UniProt O94874). Nature of the experiment: co-IP.
For experiment [3], the target named is CDK5RAP3 (CDK5 regulatory subunit associated protein 3), endogenous (human (endogenous in HEK293T)) (UniProt Q96JB5). The experiment in a line: co-IP.
Experiment [4] addresses T1, DDRGK1 (DDRGK domain containing 1), endogenous (human (endogenous in HEK293T)) (UniProt Q96HY6).
T1 sequence: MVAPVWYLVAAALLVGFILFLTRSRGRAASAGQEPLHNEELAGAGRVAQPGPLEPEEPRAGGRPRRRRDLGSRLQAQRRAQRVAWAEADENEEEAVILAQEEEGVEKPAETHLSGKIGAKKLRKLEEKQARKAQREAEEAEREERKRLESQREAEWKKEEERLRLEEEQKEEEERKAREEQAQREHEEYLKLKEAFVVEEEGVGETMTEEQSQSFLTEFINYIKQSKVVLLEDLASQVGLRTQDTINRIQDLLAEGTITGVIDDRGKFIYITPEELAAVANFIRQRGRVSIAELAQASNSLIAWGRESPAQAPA
Nature of the experiment: co-IP.

Protein sequences, listed by entry. Tags and fused reporters are not part of them. Residues count along the entry.
UniProt P03186, residues 1-235: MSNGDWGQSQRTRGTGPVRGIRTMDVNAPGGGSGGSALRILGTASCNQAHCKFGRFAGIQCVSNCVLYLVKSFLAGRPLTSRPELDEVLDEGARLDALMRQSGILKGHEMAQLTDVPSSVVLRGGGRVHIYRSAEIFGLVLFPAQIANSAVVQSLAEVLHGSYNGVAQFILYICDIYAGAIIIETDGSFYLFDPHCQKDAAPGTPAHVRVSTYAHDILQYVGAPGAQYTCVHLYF
UniProt O94874: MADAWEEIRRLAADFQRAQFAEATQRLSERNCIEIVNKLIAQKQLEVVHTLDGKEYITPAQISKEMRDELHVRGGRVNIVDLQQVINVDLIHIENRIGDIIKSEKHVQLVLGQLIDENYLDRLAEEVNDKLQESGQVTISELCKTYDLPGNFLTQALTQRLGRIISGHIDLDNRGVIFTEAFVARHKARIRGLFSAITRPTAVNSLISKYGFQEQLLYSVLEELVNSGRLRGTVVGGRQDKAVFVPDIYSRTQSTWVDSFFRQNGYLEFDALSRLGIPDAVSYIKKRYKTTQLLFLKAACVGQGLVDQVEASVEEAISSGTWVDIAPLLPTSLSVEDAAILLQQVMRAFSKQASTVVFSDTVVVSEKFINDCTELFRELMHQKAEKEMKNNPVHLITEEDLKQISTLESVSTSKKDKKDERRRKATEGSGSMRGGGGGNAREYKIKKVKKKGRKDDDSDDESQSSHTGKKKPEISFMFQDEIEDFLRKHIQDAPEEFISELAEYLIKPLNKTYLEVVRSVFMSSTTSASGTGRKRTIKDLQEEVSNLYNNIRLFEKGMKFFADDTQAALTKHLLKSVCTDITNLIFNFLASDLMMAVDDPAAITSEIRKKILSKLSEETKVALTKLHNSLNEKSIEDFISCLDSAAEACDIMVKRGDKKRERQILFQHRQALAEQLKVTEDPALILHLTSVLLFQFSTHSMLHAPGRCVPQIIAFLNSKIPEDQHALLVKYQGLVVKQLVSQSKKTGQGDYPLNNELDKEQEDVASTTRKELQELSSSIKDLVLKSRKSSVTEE
UniProt Q04637: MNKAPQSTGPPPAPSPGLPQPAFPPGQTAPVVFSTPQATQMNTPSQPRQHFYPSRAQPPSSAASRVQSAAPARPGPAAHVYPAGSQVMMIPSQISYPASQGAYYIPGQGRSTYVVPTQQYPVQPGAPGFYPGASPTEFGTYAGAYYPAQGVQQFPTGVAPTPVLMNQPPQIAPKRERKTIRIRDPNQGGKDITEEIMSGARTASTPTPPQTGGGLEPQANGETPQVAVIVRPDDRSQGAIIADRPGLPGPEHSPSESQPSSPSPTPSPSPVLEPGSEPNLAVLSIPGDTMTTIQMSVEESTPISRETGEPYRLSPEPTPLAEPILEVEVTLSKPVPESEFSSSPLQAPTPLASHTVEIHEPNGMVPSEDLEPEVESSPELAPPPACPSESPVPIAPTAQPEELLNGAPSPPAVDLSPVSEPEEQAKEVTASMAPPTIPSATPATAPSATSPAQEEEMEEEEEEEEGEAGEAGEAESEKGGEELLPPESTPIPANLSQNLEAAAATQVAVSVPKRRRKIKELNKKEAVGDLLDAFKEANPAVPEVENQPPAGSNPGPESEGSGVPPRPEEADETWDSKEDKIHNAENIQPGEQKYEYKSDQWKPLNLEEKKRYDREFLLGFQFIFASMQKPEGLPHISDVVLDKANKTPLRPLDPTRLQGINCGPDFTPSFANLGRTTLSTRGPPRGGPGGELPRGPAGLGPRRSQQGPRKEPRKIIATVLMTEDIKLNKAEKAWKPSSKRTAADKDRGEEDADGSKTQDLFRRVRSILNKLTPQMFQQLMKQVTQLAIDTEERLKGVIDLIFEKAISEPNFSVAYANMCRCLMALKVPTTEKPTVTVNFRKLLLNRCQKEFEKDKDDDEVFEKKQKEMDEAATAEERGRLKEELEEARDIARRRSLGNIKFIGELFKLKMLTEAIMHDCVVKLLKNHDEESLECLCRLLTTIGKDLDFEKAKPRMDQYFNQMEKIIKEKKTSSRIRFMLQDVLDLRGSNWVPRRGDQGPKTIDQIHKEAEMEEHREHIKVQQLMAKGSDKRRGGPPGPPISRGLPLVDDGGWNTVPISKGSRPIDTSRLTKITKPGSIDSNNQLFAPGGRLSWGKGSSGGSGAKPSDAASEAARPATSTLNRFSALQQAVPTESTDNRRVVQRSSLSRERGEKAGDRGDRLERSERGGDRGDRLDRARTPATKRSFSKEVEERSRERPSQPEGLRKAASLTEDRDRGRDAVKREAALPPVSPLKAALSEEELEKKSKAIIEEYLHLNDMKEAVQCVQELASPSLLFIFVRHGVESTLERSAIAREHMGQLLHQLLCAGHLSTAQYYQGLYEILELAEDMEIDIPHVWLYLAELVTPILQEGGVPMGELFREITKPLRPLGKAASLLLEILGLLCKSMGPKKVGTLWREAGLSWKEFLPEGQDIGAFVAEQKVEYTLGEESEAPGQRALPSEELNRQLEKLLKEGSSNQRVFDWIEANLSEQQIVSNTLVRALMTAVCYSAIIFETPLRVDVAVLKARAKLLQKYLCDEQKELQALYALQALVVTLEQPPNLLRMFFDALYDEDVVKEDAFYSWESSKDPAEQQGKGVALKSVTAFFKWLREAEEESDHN

The target in the next experiment is MBP-UFL1 (UniProt O94874). The experiment in a line: pull-down; equimolar purified bacterially expressed His-BPLF1 and MBP-UFL1 mixed; affinity isolation of the HIS and MBP tags from equal aliquots; Western blot; both purified.

Results are given in words; binding and its absence hold for the method and conditions named. For some assays here: In cells and extracts the contact can be indirect. Some entries that bind do so weakly or less than the wild type.

Consider “EIF4G1, endogenous (from UniProt Q04637 1-1599)”, for which the binding entry in experiment [1] is “binds”.
For the substance “FLAG-BPLF1 (vDUB, N-terminal domain of the Epstein-Barr virus large tegument protein BPLF1) (from UniProt P03186 1-235) (domain or fragment)”, the binding result in experiment [2], in experiment [3] and in experiment [4] was “binds” each time.
Take “His-BPLF1 (1–235) (from UniProt P03186 1-235) (domain or fragment)”: the binding result with MBP-UFL1 is recorded as “binds weakly”.

The record behind these values is article PMC12013442.
